Laboratory results as given in the supplement of paper PMC6078165.

System: HCC1143
Assay: relative JC-1 red fluorescence (viability) vs pre-drug, coculture with fibroblast (fraction); higher = more viable cancer cells
Experimental: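 JC-1 labelled TNBC cells cocultured 1:1 (1,500 cells each) with CellTrace Violet stained primary or stromal fibroblasts in 384-well plates in FluoroBrite medium, treated with one of 42 anticancer drugs at 0.1, 1, 10 or 100 uM. JC-1 red fluorescence (mitochondrial integrity in cancer cells only) was read by plate reader every 8 h for 72 h. Values are normalised to each well's pre-drug value. The stock of one drug was tenfold lower, so its dose labels may be too high.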

CCCCCOC(=O)Nc1nc(=O)n([C@@H]2O[C@H](C)[C@@H](O)[C@H]2O)cc1F [Capecitabine]
relative JC-1 red fluorescence
Details	8 h	16 h	24 h	32 h	40 h	48 h	56 h	64 h	72 h
0.1 µM, coculture fibroblast: C12385	0.838	0.74	0.651	0.5794	0.5128	0.4487	0.405	0.358	0.3352
0.1 µM, coculture fibroblast: H6013	0.7287	0.6665	0.638	0.638	0.553	0.542	0.508	0.492	0.476
0.1 µM, coculture fibroblast: H6019	0.8	0.70467	0.649	0.578	0.538	0.502	0.454	0.401	0.363
0.1 µM, coculture fibroblast: H6076	0.81	0.837	0.7649	0.676	0.662	0.633	0.587	0.549	0.551
0.1 µM, coculture fibroblast: H6231	0.862	0.875	0.761	0.649	0.649	0.615	0.569	0.525	0.501
0.1 µM, coculture fibroblast: HADF	0.7178	0.65	0.618	0.613	0.5164	0.496	0.454	0.425	0.411
0.1 µM, coculture fibroblast: HCFa	0.774	0.702	0.669	0.642	0.564	0.538	0.486	0.455	0.422
0.1 µM, coculture fibroblast: HCPF	0.83	0.776	0.7295	0.659	0.6335	0.608	0.567	0.53	0.516
0.1 µM, coculture fibroblast: HHSteC	0.794	0.698	0.658	0.605	0.516	0.491	0.442	0.413	0.371
0.1 µM, coculture fibroblast: HMF	0.7984	0.855	0.773	0.63	0.649	0.606	0.559	0.518	0.484
0.1 µM, coculture fibroblast: HPFa	0.906	0.79	0.744	0.6489	0.5736	0.534	0.477	0.428	0.382
0.1 µM, coculture fibroblast: HUF	0.861	0.778	0.752	0.694	0.661	0.643	0.6	0.572	0.549
0.1 µM, coculture fibroblast: Hs5	0.8951	0.917	0.871	0.8326	0.775	0.739	0.703	0.666	0.652
0.1 µM, coculture fibroblast: Hs27A	0.6766	0.587	0.552	0.567	0.435	0.416	0.367	0.335	0.313
0.1 µM, coculture fibroblast: Hs343T	0.836	0.85	0.788	0.705	0.685	0.66	0.615	0.575	0.55
0.1 µM, coculture fibroblast: WS1	0.813	0.733	0.681	0.5951	0.533	0.488	0.448	0.407	0.378
1 µM, coculture fibroblast: C12385	0.87	0.747	0.683	0.622	0.555	0.516	0.48	0.446	0.436
1 µM, coculture fibroblast: H6013	0.781	0.693	0.663	0.662	0.593	0.586	0.551	0.531	0.486
1 µM, coculture fibroblast: H6019	0.801	0.701	0.655	0.596	0.555	0.536	0.493	0.446	0.421
1 µM, coculture fibroblast: H6076	0.82	0.794	0.7388	0.675	0.6456	0.627	0.597	0.574	0.569
1 µM, coculture fibroblast: H6231	0.8295	0.779	0.68	0.627	0.591	0.562	0.526	0.497	0.477
1 µM, coculture fibroblast: HADF	0.741	0.641	0.62	0.624	0.544	0.527	0.492	0.467	0.45
1 µM, coculture fibroblast: HCFa	0.7386	0.626	0.583	0.554	0.461	0.431	0.38	0.352	0.323
1 µM, coculture fibroblast: HCPF	0.8164	0.832	0.7605	0.63	0.6666	0.6233	0.5706	0.534	0.5072
1 µM, coculture fibroblast: HHSteC	0.917	0.87	0.856	0.85	0.808	0.791	0.748	0.723	0.648
1 µM, coculture fibroblast: HMF	0.8229	0.837	0.753	0.636	0.634	0.606	0.5423	0.5151	0.48
1 µM, coculture fibroblast: HPFa	0.9054	0.7956	0.767	0.673	0.615	0.575	0.51	0.468	0.427
1 µM, coculture fibroblast: HUF	0.87077	0.758	0.709	0.643	0.599	0.575	0.527	0.487	0.46
1 µM, coculture fibroblast: Hs5	0.874	0.81	0.78	0.754	0.68	0.653	0.624	0.595	0.587
1 µM, coculture fibroblast: Hs27A	0.715	0.642	0.594	0.604	0.497	0.5	0.4524	0.4271	0.38
1 µM, coculture fibroblast: Hs343T	0.809	0.784	0.7174	0.627	0.594	0.554	0.509	0.487	0.46
1 µM, coculture fibroblast: WS1	0.854	0.736	0.682	0.599	0.543	0.501	0.456	0.408	0.381
10 µM, coculture fibroblast: C12385	0.86744	0.758	0.6886	0.615	0.559	0.512	0.47	0.428	0.405
10 µM, coculture fibroblast: H6013	0.776	0.692	0.658	0.647	0.591	0.585	0.554	0.532	0.496
10 µM, coculture fibroblast: H6019	0.799	0.714	0.661	0.602	0.565	0.532	0.481	0.427	0.389
10 µM, coculture fibroblast: H6076	0.814	0.8806	0.8078	0.6841	0.68	0.648	0.604	0.563	0.554
10 µM, coculture fibroblast: H6231	0.8426	0.925	0.795	0.594	0.667	0.619	0.576	0.525	0.491
10 µM, coculture fibroblast: HADF	0.706	0.62	0.589	0.589	0.493	0.464	0.426	0.4	0.392
10 µM, coculture fibroblast: HCFa	0.779	0.6657	0.62423	0.605	0.51	0.488	0.436	0.397	0.376
10 µM, coculture fibroblast: HCPF	0.827	0.848	0.7698	0.636	0.663	0.618	0.584	0.548	0.523
10 µM, coculture fibroblast: HHSteC	0.902	0.887	0.894	0.859	0.754	0.824	0.791	0.769	0.733
10 µM, coculture fibroblast: HMF	0.827	0.8535	0.785	0.685	0.692	0.662	0.621	0.591	0.567
10 µM, coculture fibroblast: HPFa	0.932	0.83	0.767	0.676	0.618	0.581	0.53	0.486	0.45
10 µM, coculture fibroblast: HUF	0.879	0.766	0.6649	0.5809	0.523	0.4815	0.431	0.395	0.364
10 µM, coculture fibroblast: Hs5	0.874	0.827	0.908	0.83	0.793	0.754	0.718	0.676	0.655
10 µM, coculture fibroblast: Hs27A	0.695	0.62	0.58	0.605	0.479	0.462	0.42	0.39	0.39
10 µM, coculture fibroblast: Hs343T	0.825	0.8837	0.803	0.664	0.689	0.644	0.59	0.549	0.511
10 µM, coculture fibroblast: WS1	0.861	0.774	0.727	0.641	0.576	0.536	0.49	0.441	0.414
100 µM, coculture fibroblast: C12385	0.879	0.787	0.735	0.675	0.612	0.564	0.532	0.489	0.461
100 µM, coculture fibroblast: H6013	0.783	0.674	0.635	0.618	0.558	0.54774	0.5184	0.507	0.477
100 µM, coculture fibroblast: H6019	0.83	0.766	0.734	0.679	0.657	0.64	0.614	0.584	0.562
100 µM, coculture fibroblast: H6076	0.805	0.809	0.7541	0.691	0.657	0.6462	0.62	0.597	0.592
100 µM, coculture fibroblast: H6231	0.8469	0.845	0.748	0.677	0.661	0.631	0.597	0.563	0.551
100 µM, coculture fibroblast: HADF	0.7504	0.6623	0.6207	0.6269	0.529	0.499	0.468	0.442	0.43
100 µM, coculture fibroblast: HCFa	0.789	0.675	0.637	0.617	0.519	0.489	0.443	0.41	0.392
100 µM, coculture fibroblast: HCPF	0.837	0.809	0.768	0.7	0.68	0.65	0.624	0.598	0.584
100 µM, coculture fibroblast: HHSteC	0.8268	0.7185	0.6821	0.6336	0.554	0.53	0.485	0.456	0.406
100 µM, coculture fibroblast: HMF	0.827	0.841	0.812	0.753	0.746	0.727	0.691	0.668	0.642
100 µM, coculture fibroblast: HPFa	0.924	0.812	0.762	0.674	0.622	0.584	0.528	0.494	0.458
100 µM, coculture fibroblast: HUF	0.891	0.808	0.713	0.64	0.589	0.552	0.497	0.458	0.427
100 µM, coculture fibroblast: Hs5	0.88	0.872	0.824	0.7793	0.721	0.6934	0.6636	0.6351	0.632
100 µM, coculture fibroblast: Hs27A	0.728	0.652	0.619	0.643	0.511	0.495	0.462	0.451	0.474
100 µM, coculture fibroblast: Hs343T	0.80283	0.806	0.74	0.678	0.6401	0.603	0.567	0.542	0.514
100 µM, coculture fibroblast: WS1	0.836	0.7358	0.684	0.62	0.568	0.535	0.494	0.4611	0.438

Values are relative to the signal before dosing, not to a vehicle control; the signal also falls without drug.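 Fibroblast labels name human fibroblasts: mostly primary ones from tissues such as uterus (C12385, HUF), lung (H6013), bone (Hs27A), adrenal (HADF) and skin (WS1), plus mammary HMF and breast cancer-associated Hs343T. The cancer cells are basal-like or mesenchymal-like triple-negative breast cancer lines. The paper calls a changed response a hit when it shifts by more than 3x the replicate standard deviation. The tissue of the other fibroblasts is not given here.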
